This is one part of the list.

Sequences of proteins named here, by UniProt entry; tags and fusion partners are left off.
UniProt Q0JBA9, entry or part of it: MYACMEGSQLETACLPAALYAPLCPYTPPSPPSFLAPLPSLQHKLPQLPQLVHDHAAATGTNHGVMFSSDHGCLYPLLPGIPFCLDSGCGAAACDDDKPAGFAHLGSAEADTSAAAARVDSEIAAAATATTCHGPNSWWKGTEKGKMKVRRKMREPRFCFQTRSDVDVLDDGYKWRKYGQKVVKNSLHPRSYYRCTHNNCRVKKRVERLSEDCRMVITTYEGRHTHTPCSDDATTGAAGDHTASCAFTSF

This assay deals with OsWRKY34 (Oryza sativa, UniProt Q0JBA9 1-250). Put plainly: protein-binding microarray (RPBM); PBS, 2% BSA, 51.3 ng/ul salmon testes DNA, 50 uM zinc acetate, 200 nM TF, 25 C, 1 h; high values mean tight binding. As to conditions: protein: recombinant; tags: N-terminal polyhistidine and DsRed monomer fusion (pET32a); label: CyDye5-dUTP incorporated in the synthesized complementary strand; 3' TTTTT single-stranded linker to array surface; dsDNA, one strand shown. Put shortly:
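Binding signal is defined as the fluorescence intensity of each feature in arbitrary units, read on an Axon 4000B scanner. Transcription factors with N-terminal polyhistidine and DsRed fusions came from E. coli BL21-CodonPlus and were purified on Ni–NTA. They were incubated at 200 nM for 1 h at 25 °C on a custom Agilent array that had been made double-stranded with Cy5-dUTP, with 50 µM zinc acetate present, and the array was washed.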
Take “AACGCTGCCTACGATACATGCCCTCACATTATCTTCCTATCGGAGTCACCTAGTGCAG”: the binding signal is 11200 fluorescence intensity (a.u.). For “CCATCCAACTTCAGTTGTAACTGTCGTGTTTCCTCTGATTCGGAGTCACCTAGTGCAG”, the binding signal was 8270 fluorescence intensity (a.u.). For “TTTTTTTCTGAAAACAGAAGAGAGTGTTTTGTGTTTTTTACGGAGTCACCTAGTGCAG”, the binding signal is 8030 fluorescence intensity (a.u.). Turning to “TCGAAATGTTTGACACCGTTGACTTTTTAGCACATGTTTACGGAGTCACCTAGTGCAG”, the binding signal was 19000 fluorescence intensity (a.u.). As to “CTTCTCAGCAATGAGGTTTTTGTTATAATTGTTTTTGCTACGGAGTCACCTAGTGCAG”, the binding signal was 8590 fluorescence intensity (a.u.). Take “CCGCGCCCGCCTCGCCGACTTTGGTCTCTCCCGCATCAATCGGAGTCACCTAGTGCAG”: the binding signal was 10400 fluorescence intensity (a.u.). For “GGGGCTCATTTAGTCATTTACACGAGTGGCTGTTCAATTCCGGAGTCACCTAGTGCAG”, the binding signal is 9700 fluorescence intensity (a.u.).

For “TTGCTGCCACTCTGCCATAAGCTTCCATCCTATCAAGCACCGGAGTCACCTAGTGCAG”, the binding signal is 8260 fluorescence intensity (a.u.). On to “CTGTAATTTTCTTTTTCTAATTGATGTGCCACGTAAACGCCGGAGTCACCTAGTGCAG”, for which the binding signal is 8210 fluorescence intensity (a.u.). In the case of “GTTTGGATTATACTGTATTGATCGGCGATCTTTTCGCCGCCGGAGTCACCTAGTGCAG”, the binding signal was 8760 fluorescence intensity (a.u.). In the case of “CGGCTAGTATATGTCTGTCTGTGTGTCTGTCGTGCATAATCGGAGTCACCTAGTGCAG”, the binding signal is 9460 fluorescence intensity (a.u.). For the sequence “TGTGTTGGTTGTAAGAGCGTTTTTTTGGCGATCTCTTCTGCGGAGTCACCTAGTGCAG”, the binding signal is 8460 fluorescence intensity (a.u.).

On to “TATCTGAGCCTGTGGCTCCATTTGTGGGCTGGGTCGAAGACGGAGTCACCTAGTGCAG”, for which the binding signal was 8170 fluorescence intensity (a.u.). Consider “ATATATATATATATATATATATATATATATAGTGGAATGACGGAGTCACCTAGTGCAG”, for which the binding signal is 12300 fluorescence intensity (a.u.). With “TATCTAAGTTCCTAACTCATCTTCTTCATTTTCCACGCGCCGGAGTCACCTAGTGCAG”, the binding signal was 9240 fluorescence intensity (a.u.). In the case of “AGCAAGTGACAGTCAGAACCCTCGAGCGTCATCAATTTCTCGGAGTCACCTAGTGCAG”, the binding signal is 9360 fluorescence intensity (a.u.). Then “TGTGTTTGTATTCATCGATGCCTATATAAACCGCGCGTTTCGGAGTCACCTAGTGCAG”, with 8710 fluorescence intensity (a.u.); and “ATTTGAGGCTCATTTGTCTCCGGCCCGGCCCACTTCCCTTCGGAGTCACCTAGTGCAG”, with 9220 fluorescence intensity (a.u.). As for “TAACTGTGATGGTTGCTTGCTTGTTGTTTGGTCATGGTGACGGAGTCACCTAGTGCAG”, the binding signal was 12300 fluorescence intensity (a.u.).

With “ATGTTTTTCTTTTCTTTCTTCTTTTTTTTGTTTTTGACCTCGGAGTCACCTAGTGCAG”, the binding signal was 11900 fluorescence intensity (a.u.). Then “TTCAAAATGTTTGACACCATTGACTTTTTAGCATATGTTTCGGAGTCACCTAGTGCAG”, with 10000 fluorescence intensity (a.u.). In the case of “TATCGTTTATGGATTTAACCGCAGTTTTTCTTGTCTTTATCGGAGTCACCTAGTGCAG”, the binding signal was 9490 fluorescence intensity (a.u.).

As for “TTTTATTTTTCTTGACGCCACACACCTCTCCTCTGTTCTTCGGAGTCACCTAGTGCAG”, the binding signal is 9520 fluorescence intensity (a.u.).

Regarding “AATGCAACATCTCAGTTTGCCGGGTTTTGTCTGCTCGCGCCGGAGTCACCTAGTGCAG”, the binding signal is 10600 fluorescence intensity (a.u.).

“CCTACACACGCAAACTTCTAATTTTTCTGTCACATCGTTTCGGAGTCACCTAGTGCAG”: the binding signal is 9540 fluorescence intensity (a.u.).

Take “TCCTCTTTCGCTACCTCCCGTGCCTAAATGGGCCAAATCTCGGAGTCACCTAGTGCAG”: the binding signal is 11600 fluorescence intensity (a.u.). Next, “CCTTCGGCTCTTCGCCCCTCGCTACCTCCGATTTCCAATGCGGAGTCACCTAGTGCAG”: 8280 fluorescence intensity (a.u.). Take “TGTTATTCAACTGTTCTTGTACCACCATATGCTACTTCTTCGGAGTCACCTAGTGCAG”: the binding signal was 9360 fluorescence intensity (a.u.). With “TCATGGATATGCCTCTTACAGTGGACCTTACTAGGATTCTCGGAGTCACCTAGTGCAG”, the binding signal was 10800 fluorescence intensity (a.u.). Consider “TGATCGCCGGTATTGAGCAAGGATTGGGGTTTGGGGTAAGCGGAGTCACCTAGTGCAG”, for which the binding signal was 12000 fluorescence intensity (a.u.). Turning to “CACTTTGCTTGCTGGTTTTGATTTTTGGATTCCTTCCGTTCGGAGTCACCTAGTGCAG”, the binding signal was 9500 fluorescence intensity (a.u.). Then “CGTTCATTCCGCATCCAATGGCAGCACTGGTTCCTAGCTTCGGAGTCACCTAGTGCAG”, with 8110 fluorescence intensity (a.u.); and “CTTTTTTTTTCTTTTTCTCTTTTACGGTGTTGGGAAGGTTCGGAGTCACCTAGTGCAG”, with 10400 fluorescence intensity (a.u.); and “TGTCACTCCCGCCTCGGTAACCGGCGCGCTACCCTCGCTTCGGAGTCACCTAGTGCAG”, with 10400 fluorescence intensity (a.u.). As for “CCTATCGATCTCTTGTTGTTCTTCATCGTCCTCTATATAGCGGAGTCACCTAGTGCAG”, the binding signal is 12200 fluorescence intensity (a.u.). As for “TCTGATTATCCTATGCCTGCCGTGTTTAAGTGGTGTGTGTCGGAGTCACCTAGTGCAG”, the binding signal was 8660 fluorescence intensity (a.u.).

As to “ATCGTTTGAAATTCTTATGGATTGAACAATCCTATAAAAGCGGAGTCACCTAGTGCAG”, the binding signal was 8660 fluorescence intensity (a.u.).

Turning to “TTGCAAACACATGTCACATAGTCTTCCCCACATTGGCTCTCGGAGTCACCTAGTGCAG”, the binding signal was 9790 fluorescence intensity (a.u.). For “GAACCGAACGATTCGCTCATCGCTTTTGTCATCATCTAACCGGAGTCACCTAGTGCAG”, the binding signal is 10900 fluorescence intensity (a.u.). With “GAGGGGTGGACGGGGCTGGTGATGCTGGTGCTCATGGCGGCGGAGTCACCTAGTGCAG”, the binding signal is 9300 fluorescence intensity (a.u.). For “GAGATGGGGAGGGAGGCCGGCCGGGAGAGGGAGAGAGAGGCGGAGTCACCTAGTGCAG”, the binding signal is 8890 fluorescence intensity (a.u.).

Take “AATCCCTCTGCTATAAAATCGCTCTGCTTTACTGCTGTTTCGGAGTCACCTAGTGCAG”: the binding signal was 11800 fluorescence intensity (a.u.).

(Values after PMC7819943, “Rice protein-binding microarrays: a tool to detect cis-acting elements near promoter regions in rice”.)
